Assay [1] addresses GFP-LRRC8C (human LRRC8C with GFP fused to its N-terminus) (human) [GFP: P42212]. Briefly: co-immunoprecipitation from double-transfected HEK cells, with endogenous LRRC8A present (WT) or absent (KO).
Assay [2] has the same target. Briefly: co-immunoprecipitation with antibodies against the tags, LRRC8A-deficient cells.
Assay [3] addresses GFP-LRRC8E (human LRRC8E with GFP fused to its N-terminus) (human) [GFP: P42212]. Briefly: co-immunoprecipitation from double-transfected HEK cells, with endogenous LRRC8A present (WT) or absent (KO).
Assay [4] has the same target. Briefly: co-immunoprecipitation with antibodies against the tags, LRRC8A-deficient cells.
Assay [5] concerns the target LRRC8A (leucine-rich repeat-containing protein 8, family member A), human (human) (UniProt Q8IWT6). Briefly: co-immunoprecipitation from double-transfected HEK cells, Western blot. For orientation: A western blot detects proteins with antibodies after separation by electrophoresis.
For assay [6] the target is unchanged. Briefly: co-immunoprecipitation from transfected HEK cells.

Protein sequences, listed by entry. Tags and fused reporters are not part of them.
UniProt Q8IWT6: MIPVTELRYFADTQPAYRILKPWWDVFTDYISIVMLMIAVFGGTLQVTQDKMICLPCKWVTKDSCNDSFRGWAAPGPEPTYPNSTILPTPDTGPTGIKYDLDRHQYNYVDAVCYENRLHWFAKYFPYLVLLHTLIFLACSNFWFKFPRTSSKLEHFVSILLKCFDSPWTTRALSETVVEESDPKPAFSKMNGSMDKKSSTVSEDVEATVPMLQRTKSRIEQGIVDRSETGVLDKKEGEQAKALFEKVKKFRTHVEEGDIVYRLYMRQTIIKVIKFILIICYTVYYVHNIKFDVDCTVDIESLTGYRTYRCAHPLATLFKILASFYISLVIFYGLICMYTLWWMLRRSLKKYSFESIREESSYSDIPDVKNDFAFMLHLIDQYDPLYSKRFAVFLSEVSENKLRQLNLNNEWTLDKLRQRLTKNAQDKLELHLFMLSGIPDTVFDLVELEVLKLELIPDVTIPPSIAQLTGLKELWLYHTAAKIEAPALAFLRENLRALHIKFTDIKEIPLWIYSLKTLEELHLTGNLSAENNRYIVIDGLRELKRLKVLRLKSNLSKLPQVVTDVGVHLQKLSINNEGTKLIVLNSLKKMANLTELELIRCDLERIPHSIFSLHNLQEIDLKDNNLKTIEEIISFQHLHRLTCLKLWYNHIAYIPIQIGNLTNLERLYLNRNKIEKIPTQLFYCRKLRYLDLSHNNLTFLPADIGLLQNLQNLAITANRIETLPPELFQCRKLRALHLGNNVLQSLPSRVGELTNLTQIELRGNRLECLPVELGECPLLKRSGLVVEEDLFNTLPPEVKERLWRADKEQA
UniProt Q6NSJ5: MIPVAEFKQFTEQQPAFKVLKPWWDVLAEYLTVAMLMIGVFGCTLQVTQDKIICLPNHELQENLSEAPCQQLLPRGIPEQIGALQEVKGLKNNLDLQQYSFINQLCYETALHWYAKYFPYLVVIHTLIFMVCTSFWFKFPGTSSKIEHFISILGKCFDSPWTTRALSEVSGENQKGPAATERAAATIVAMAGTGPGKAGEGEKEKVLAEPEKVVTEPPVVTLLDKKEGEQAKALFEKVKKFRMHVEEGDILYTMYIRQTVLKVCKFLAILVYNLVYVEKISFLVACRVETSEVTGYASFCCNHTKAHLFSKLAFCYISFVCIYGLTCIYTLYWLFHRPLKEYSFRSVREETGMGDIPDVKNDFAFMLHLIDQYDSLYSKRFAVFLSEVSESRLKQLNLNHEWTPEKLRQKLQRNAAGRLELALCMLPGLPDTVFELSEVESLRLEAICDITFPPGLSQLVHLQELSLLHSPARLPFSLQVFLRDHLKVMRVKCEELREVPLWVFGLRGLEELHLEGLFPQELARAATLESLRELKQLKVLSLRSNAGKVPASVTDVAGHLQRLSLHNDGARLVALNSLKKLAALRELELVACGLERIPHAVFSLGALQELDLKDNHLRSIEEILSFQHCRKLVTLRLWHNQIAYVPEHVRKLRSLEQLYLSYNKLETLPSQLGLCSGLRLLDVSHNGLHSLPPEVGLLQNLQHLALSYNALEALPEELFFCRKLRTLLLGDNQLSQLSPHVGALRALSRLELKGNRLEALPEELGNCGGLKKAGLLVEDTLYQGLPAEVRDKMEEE
UniProt Q8TDW0: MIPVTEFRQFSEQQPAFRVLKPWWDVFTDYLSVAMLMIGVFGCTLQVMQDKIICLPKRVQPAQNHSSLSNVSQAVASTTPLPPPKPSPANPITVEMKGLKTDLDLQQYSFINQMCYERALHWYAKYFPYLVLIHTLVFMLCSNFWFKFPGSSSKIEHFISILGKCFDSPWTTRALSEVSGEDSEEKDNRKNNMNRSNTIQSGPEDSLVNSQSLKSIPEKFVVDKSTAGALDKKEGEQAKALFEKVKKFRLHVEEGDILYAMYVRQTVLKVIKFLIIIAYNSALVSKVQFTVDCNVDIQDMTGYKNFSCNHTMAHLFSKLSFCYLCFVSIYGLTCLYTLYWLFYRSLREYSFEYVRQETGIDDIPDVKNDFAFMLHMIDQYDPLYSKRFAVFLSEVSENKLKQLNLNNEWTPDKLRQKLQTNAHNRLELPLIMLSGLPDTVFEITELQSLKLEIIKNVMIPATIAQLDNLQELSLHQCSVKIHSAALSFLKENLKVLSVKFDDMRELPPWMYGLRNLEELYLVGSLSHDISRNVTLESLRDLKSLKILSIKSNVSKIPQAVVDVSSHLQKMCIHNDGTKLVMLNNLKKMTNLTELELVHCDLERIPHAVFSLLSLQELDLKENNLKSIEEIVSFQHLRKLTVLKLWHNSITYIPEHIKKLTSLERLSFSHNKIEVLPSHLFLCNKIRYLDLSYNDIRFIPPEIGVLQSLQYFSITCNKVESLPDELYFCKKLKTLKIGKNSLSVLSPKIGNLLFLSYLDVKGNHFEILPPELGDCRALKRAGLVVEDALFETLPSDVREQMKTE

Results are given in words; binding and its absence hold for the method and conditions named. In cells and extracts the contact can be indirect. Some binding calls cover weakened binding; strength is not graded here.

This passage reports binding results from US20150253303A1 (FORSCHUNGSVERBUND BERLIN E V, published 2015).

As for “Epitope (myc)-tagged LRRC8E (from UniProt Q6NSJ5 1-796)”, the binding result in assay [1] and in assay [2] was “binds” in each case.
In the case of “Epitope (myc)-tagged LRRC8C (from UniProt Q8TDW0 1-803)”, the binding result in assay [3] and in assay [4] was “binds” throughout.
Turning to “GFP-LRRC8B (human LRRC8B with GFP fused to its N-terminus) (from UniProt P42212 1-238; Q6P9F7 1-803)”, the binding result in assay [5] and in assay [6] was “binds” each time.
With “GFP-LRRC8E (human LRRC8E with GFP fused to its N-terminus) (from UniProt P42212 1-238; Q6NSJ5 1-796)”, the binding entry in assay [5] and in assay [6] was “binds” in each case.
As for “GFP-LRRC8D (human LRRC8D with GFP fused to its N-terminus) (from UniProt P42212 1-238; Q7L1W4 1-858)”, the binding result in assay [5] and in assay [6] was “binds” throughout.
